Reference: PubChem BioAssay AID212 (DTP/NCI, 2004)
The list shows only some results of the screen, not a fair sample: it gathers tests that were run many times, whatever their T/C, doses with no T/C, and many T/C values between a quarter and a half above the control. Further doses and runs are listed elsewhere. T/C: endpoint of the treated group in % of that of the vehicle group. Schedules are NCI's codes, read here as Q, the interval in days (D) or hours (H), X, the number of doses. Some T/C values are followed by the survivors on the day toxicity was checked, most often the fifth; where none is given, no animal had died by that day. Some entries were tested several times; their values stand side by side, smallest first. Some entries give survivors of the animals treated and no T/C: the source files T/C as zero there, which appears to mark a toxic dose or a test without result, not a measured value. Counts of survivors are from the toxicity check (mostly the fifth day) where no day follows; animals may have died later. Where a SMILES comes first, the peptide text is derived from it. Bridges are numbered along the chain shown (N, C = ends). Roman numbers before positions name the chains, in order. [ ]: non-standard residue; d: D form. The star is where a group is joined. Quinoxaline2carbonyl = O=C(c1cnc2ccccc2n1)*; NMeV = CN[CH](C(=O)O)C(C)C; NMeC = CN[CH](CS)C(=O)O

System: BDF1 mice, colon carcinoma 38 sc, T/C %
Test: NCI In Vivo Anticancer Drug Screen. Data for tumor model Colon Carcinoma 38 (subcutaneous) in B6D2F1 (BDF1) mice
Conditions: T/C endpoint: median tumor weight (est.), higher T/C = larger tumour; for T/C: evaluated on day 20
Outline: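 Transplantable tumor in mice; compound-treated vs vehicle-dosed controls. Measured survival or tumor size; value = T ÷ C.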

[1] = dose: 800.0 mg/kg/injection, schedule: Q07DX002 (ip), vehicle: saline with Tween-80
[2] = dose: 400.0 mg/kg/injection, schedule: Q07DX002 (ip), vehicle: saline
[3] = dose: 25.0 mg/kg/injection, schedule: Q07DX002 (ip), vehicle: saline with Tween-80
[4] = dose: 400.0 mg/kg/injection, schedule: Q07DX002 (ip), vehicle: Klucel (hydroxypropylcellulose) (HPC)
[5] = dose: 40.0 mg/kg/injection, schedule: Q07DX003 (ip), vehicle: Klucel (hydroxypropylcellulose) (HPC)
[6] = dose: 200.0 mg/kg/injection, schedule: Q07DX002 (ip), vehicle: saline with Tween-80

C[n+]1cccc(NC(=O)c2ccc(NC(=O)C34CCC(C(=O)Nc5ccc(C(=O)Nc6ccc[n+](C)c6)cc5)(CC3)CC4)cc2)c1
survivor count (dose: 160.0 mg/kg/injection, schedule: Q07DX002 (ip), vehicle: saline with Tween-80): 1 of 10 on day 20
survivor count (dose: 180.0 mg/kg/injection, schedule: Q07DX002 (ip), vehicle: saline with Tween-80): 5 of 10 on day 20
survivor count (dose: 320.0 mg/kg/injection, schedule: Q07DX002 (ip), vehicle: saline with Tween-80): 0 of 10 on day 20
survivor count (dose: 360.0 mg/kg/injection, schedule: Q07DX002 (ip), vehicle: saline with Tween-80): 0 of 10 on day 20

O=C1NC(O)c2ccccc2O1 (stereo unspecified)
survivor count [1]: 2 of 10 on day 20

O=Cc1ccc(O)c(O)c1
T/C [2]: 129 % of control [8 of 10 alive on day 20]
survivor count [1]: 0 of 10 on day 20

CC1(C)OC2C(COC(=O)c3ccc([N+](=O)[O-])cc3)OC(NC(=O)N(CCCl)N=O)C2O1 (stereo unspecified)
T/C [3]: 147 % of control
survivor count (dose: 400.0 mg/kg/injection, schedule: Q07DX002 (ip), vehicle: saline with Tween-80): 1 of 10 on day 20

COc1cccc2c1C(=O)c1c(O)c3c(c(O)c1C2=O)C[C@H](O)C[C@@H]3OC1CC(N)C(O)C(C)O1 (stereo partly specified)
T/C (dose: 6.75 mg/kg/injection, schedule: Q07DX002 (ip), vehicle: water): 126 % of control
survivor count (dose: 54.0 mg/kg/injection, schedule: Q07DX002 (ip), vehicle: water): 0 of 10 on day 20
survivor count (dose: 60.0 mg/kg/injection, schedule: Q07DX002 (ip), vehicle: saline): 3 of 10 on day 20
survivor count (dose: 108.0 mg/kg/injection, schedule: Q07DX002 (ip), vehicle: water): 0 of 10 on day 20

O=c1cc[nH]c(=O)o1
survivor count (dose: 42.0 mg/kg/injection, schedule: Q01DX009 (ip), vehicle: water): 5 of 10

O=C1c2ccccc2C(=O)c2c3c(cc(NCCNCCO)c21)N(CCO)CCN3
T/C (dose: 25.0 mg/kg/injection, schedule: Q07DX002 (ip), vehicle: DMSO): 129 % of control
T/C (dose: 50.0 mg/kg/injection, schedule: Q07DX002 (ip), vehicle: DMSO): 128 % of control
survivor count (dose: 800.0 mg/kg/injection, schedule: Q07DX002 (ip), vehicle: DMSO): 4 of 10 on day 20

C=C(C)/C([O-])=N/[N+](C)(C)CC(O)CCCCCCCCCCCC (stereo unspecified)
survivor count (dose: 800.0 mg/kg/injection, schedule: Q01DX001 (ip), vehicle: saline): 0 of 10 on day 20

O=C(O)C1(NO)CCCCC1
T/C (dose: 25.0 mg/kg/injection, schedule: Q07DX002 (ip), vehicle: Klucel (hydroxypropylcellulose) (HPC)): 125 % of control

Nc1ncnc2c1ncn2C1OC(COP(=O)(O)O)C(O)C1O (stereo unspecified)
T/C (dose: 800.0 mg/kg/injection, schedule: Q07DX002 (ip), vehicle: saline): 131 % of control

O=C(O)CSc1nc(-c2ccccc2)c(-c2ccccc2)n1-c1ccccn1
T/C (dose: 12.5 mg/kg/injection, schedule: Q07DX002 (ip), vehicle: water): 126 % of control
survivor count [4]: 0 of 10 on day 20
survivor count (dose: 400.0 mg/kg/injection, schedule: Q07DX002 (ip), vehicle: water): 0 of 10 on day 20

COc1cc2cc3cc4cc(OC)c(OC)cc4c(C)[n+]3cc2cc1OC (tested in a mixture with another compound)
survivor count (dose: 200.0 mg/kg/injection, schedule: Q07DX002 (ip), vehicle: saline): 2 of 10 on day 20
survivor count [2]: 1 of 10 on day 20 and 6 of 10 on day 20

CCC(=O)O[C@H]1CC[C@H]2[C@@H]3CCC4=CC(=O)CC[C@]4(C)[C@H]3CC[C@]12C
T/C (dose: 40.0 mg/kg/injection, schedule: Q07DX002 (ip), vehicle: Klucel (hydroxypropylcellulose) (HPC)): 147 % of control
T/C [5]: 96, 112, 138, 143 % of control [9 of 10 alive]
survivor count [5]: 6 of 10
T/C (dose: 80.0 mg/kg/injection, schedule: Q07DX003 (ip), vehicle: Klucel (hydroxypropylcellulose) (HPC)): 123, 155, 178, 187, 202 % of control
T/C (dose: 160.0 mg/kg/injection, schedule: Q07DX002 (ip), vehicle: Klucel (hydroxypropylcellulose) (HPC)): 134 % of control
T/C (dose: 160.0 mg/kg/injection, schedule: Q07DX003 (ip), vehicle: Klucel (hydroxypropylcellulose) (HPC)): 122, 123 [9 of 10 alive], 130, 174, 243 % of control
T/C (dose: 320.0 mg/kg/injection, schedule: Q07DX003 (ip), vehicle: Klucel (hydroxypropylcellulose) (HPC)): 110, 115, 124, 151, 176 % of control
T/C (dose: 640.0 mg/kg/injection, schedule: Q07DX003 (ip), vehicle: Klucel (hydroxypropylcellulose) (HPC)): 138 [9 of 10 alive], 149, 150, 167, 170 % of control

O=C1C2(Cl)C3(Cl)C4(Cl)C(Cl)(Cl)C5(Cl)[C@]3(Cl)C1(Cl)[C@]5(Cl)C24Cl (stereo partly specified)
survivor count (dose: 200.0 mg/kg/injection, schedule: Q07DX002 (ip), vehicle: Klucel (hydroxypropylcellulose) (HPC)): 0 of 10 on day 20
survivor count [4]: 0 of 10 on day 20

COC1/C=C/O[C@@]2(C)Oc3c(C)c(O)c4c(O)c(cc(O)c4c3C2=O)NC(=O)/C(C)=C\C=C\[C@H](C)C(O)[C@@H](C)[C@@H](O)[C@@H](C)[C@H](OC(C)=O)[C@@H]1C (stereo partly specified)
T/C [3]: 144 % of control

CC1NC(=O)C(NC(=O)c2cnc3ccccc3n2)COC(=O)C(C(C)C)N(C)C(=O)C2CSSCC(C(=O)N(C)C(C(C)C)C(=O)OCC(NC(=O)c3cnc4ccccc4n3)C(=O)NC(C)C(=O)N2C)N(C)C1=O (stereo unspecified) (I: Quinoxaline2carbonyl-SA[NMeC][NMeV] / II: Quinoxaline2carbonyl-SA[NMeC][NMeV]; ester I:1-II:C, I:C-II:1; disulfide I:3-II:3; configuration not given here)
survivor count (dose: 400.0 micrograms/kg/injection, schedule: Q07DX002 (ip), vehicle: Klucel (hydroxypropylcellulose) (HPC)): 3 of 10 on day 20
survivor count (dose: 800.0 micrograms/kg/injection, schedule: Q07DX002 (ip), vehicle: Klucel (hydroxypropylcellulose) (HPC)): 1 of 10 on day 20

OCCCN1CCCCC1CO (stereo unspecified)
survivor count (dose: 1600.0 mg/kg/injection, schedule: Q07DX002 (ip), vehicle: saline): 0 of 10 on day 20
survivor count (dose: 3200.0 mg/kg/injection, schedule: Q07DX002 (ip), vehicle: saline): 0 of 10 on day 20

CC[As](=O)(O)CC
T/C (dose: 50.0 mg/kg/injection, schedule: Q07DX002 (ip), vehicle: saline): 126 % of control [9 of 10 alive on day 20]

OCC1OC(n2cnc3c(=S)nc[nH]c32)C(O)C1O (stereo unspecified)
T/C [6]: 138 % of control

COCCCNC1=C(C#N)C(=O)NC(c2cccc([N+](=O)[O-])c2)S1 (stereo unspecified)
T/C (dose: 12.5 mg/kg/injection, schedule: Q07DX002 (ip), vehicle: saline with Tween-80): 128 % of control
T/C [3]: 130 % of control
T/C (dose: 50.0 mg/kg/injection, schedule: Q07DX002 (ip), vehicle: saline with Tween-80): 135 % of control
T/C [6]: 134 and 144 % of control
